US9272927B2, “Method for preventing growth of microorganisms, and a combination for the prevention of microbial growth” (KEMIRA, OYJ, priority 2006, dated 2016)
Some of these results come from one statement about several compounds together. At least one compound was matched to its structure with a doubt left.

Test system: aerobic bacteria present in circulation water
Assay: Bactericidal test on circulation water from an alkaline fine paper machine, agar plate count (Example 6)
Assay type: cell-based
Settings: single biocide, dosages that yielded an efficient kill; 3 hours
Experimental: Circulation water (pH 8.2, ORP+169 mV) was collected from an alkaline fine paper machine (producing uncoated copy paper) and divided in 11 plastic containers. When two different biocides were dosed in to same container, the peracid was dosed first, the sample mixed thoroughly, and the second biocide was added within 5 to 10 minutes. All biocide dosages are reported as ppm (mg/l) of the commercial product, for example 20 ppm of performic acid (PFA) equilibrium product equals about 2 ppm as performic acid active substance, 12 ppm of BCDMH product equals about 4 ppm as active chlorine and 30 ppm of MCDMH product equals about 3 ppm as active chlorine. After biocide dosing the containers were capped and incubated at paper machine temperature (45° C.) with continuous agitation. The killing efficacy of different biocide dosages was measured 3 hours and 1 day after the biocide dosing using agar plate count method (PCA agar, 45° C., and 2 days).

Compound | reduction of viable bacteria count [log]
CC1(C)C(=O)N(Cl)C(=O)N1Br [BCDMH, bromochlorodimethyl hydantoin] | > 3
CC1(C)C(=O)NC(=O)N1Cl [MCDMH, monochlorodimethyl hydantoin] | > 3
